Data on 64 compounds can be found in the supplement of paper PMC11150407.

Hit rate of the full screen: of about 3,000 compounds, about 45 (2%) showed an effect of 50% or more. The list shows a part of the results.

In the assay the test system is MOLM1 and UCSD/AML1 (averaged). As to the kind of experiment: cell viability relative to DMSO control (POC); higher = less growth inhibition. The conditions noted are these: 1 µM; 72 h. On the procedure:
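Primary viability screen in the 3q26 EVI1-high AML cell lines MOLM1 and UCSD/AML1, compounds at 1 uM for 72 h. ATP CellTiter-Glo read-out given as percent viable over DMSO control (POC), averaged over duplicates. This mapping covers the TimTec NDL-3000 natural derivative library, whose compounds are identified by TimTec catalogue codes (ST...).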
In general, cell viability refers to a read-out of living cells in per cent, often relative to untreated cells. With `CCOc1cc2c(cc1OCC)C(c1ccc(OC)cc1OC)NCC2` (centres undefined), the cell viability was 89.3%.
With `COc1ccc(C(=O)NCc2cc(C)nc3ccccc23)cc1OC`, the cell viability was determined as 111%.
`COc1cc(CSc2nc3c(Cl)cc(Cl)cc3o2)cc(OC)c1OC`: the cell viability amounted to 102%.
With `O=C(CCN1C(=O)CCC1=O)OCC1CCCN2CCCCC12` (centres undefined), the cell viability worked out at 102%.
Regarding `Cc1ccc(CSc2nc3c(c(=O)[nH]c(=O)n3C)n2CC(N)=O)cc1`, the cell viability was 96.6%.
Take `CCOC(=O)c1cc(C2CC2)nc2c1c(=O)n(Cc1cc(=O)oc3ccc(OCC)cc13)c(=O)n2C`: the cell viability is 107%.
`Cc1cccc2c1NC(=O)C21C(C#N)=C(N)Oc2c1c(=O)oc1ccccc21` (centres undefined): the cell viability turned out to be 109%.
`COc1ccc(NC(=O)Cc2ccccc2)c(OC)c1`: the cell viability is 107%.
In the case of `Cn1c(SCc2ccc(Cl)cc2)nc2c(=O)[nH]cnc21` it was 90%; in that of `O=C(Cn1c(=O)cc(C(=O)N2CCCCC2)c2ccccc21)Nc1ccc(F)c(Cl)c1`, 98.9%; in that of `CCc1ccc(OCC(=O)c2ccc(O)cc2O)cc1`, 90.8%.
As for `COc1ccc(C2c3[nH]c4ccccc4c3CCN2Cc2ccc(C)cc2)cc1` (centres undefined), the cell viability was 97%.
As to `Nc1cc(=O)[nH]c(=O)n1-c1ccccc1`, the cell viability was 97.9%.
In the case of `Cc1ccc(-n2c(SCC(=O)N(C)c3ccccc3)nc3c(=O)[nH]cnc32)cc1`, the cell viability was found to be 106%.
The figure for `O=C(O)CC(NC(=O)Cc1c[nH]c2ccccc12)C(=O)O` (centres undefined) is 90.8%; for `COc1ccc2[nH]c(C)c(CCNC(=O)c3ccc(C)cc3)c2c1` it is 102%; for `Cc1ccc(O)c(C(=O)/C=C/c2ccccc2)c1` it is 98.2%.
On to `CN(C)Cc1c(O)ccc2c(=O)c(-c3ccc(Cl)cc3Cl)coc12`, for which the cell viability worked out at 102%.
Regarding `COc1cc(CO)cc(OC)c1`, the cell viability stood at 98.9%.
The figure for `Cc1ccc(S(=O)(=O)OC2C(C3COC(C)(C)O3)OC3OC(C)(C)OC32)cc1` (centres undefined) is 97%.
As to `Cc1cc2c(C(C)C)c(O)c(O)c(C=Nc3ccc(C(O)C(O)CO)cc3)c2c(O)c1-c1c(C)cc2c(C(C)C)c(O)c(O)c(C=Nc3ccc(C(O)C(O)CO)cc3)c2c1O` (centres undefined), the cell viability worked out at 103%.
Take `C=C(C)C1CCC2(COC(=O)c3ccccc3C(=O)O)CCC3(C)C(CCC4C5(C)CCC(OC(=O)c6ccccc6C(=O)O)C(C)(C)C5CCC43C)C12` (centres undefined): the cell viability worked out at 95.2%.
For the compound `O=C(/C=C/c1ccccc1O)c1ccc(O)cc1O`, the cell viability is 61.3%.
As for `O=C(Cn1c(=O)cc(C(=O)N2CCOCC2)c2ccccc21)Nc1ccc2c(c1)OCO2`, the cell viability turned out to be 95.8%.
In the case of `COc1ccc(/C=C/C(=O)c2ccccc2)cc1COc1ccc(Cl)cc1` it was 106%; in that of `COc1ccc2c(c1)c(CC(=O)N1CCN(c3ccccc3)CC1)c(C)n2C(=O)c1ccc(Cl)cc1`, 97.5%.
As for `ClC1(Cl)C2C3C4C5CC5C(C3C3(CC3)C21)C41CC1` (centres undefined), the cell viability is 124%.
Take `COc1cc(C(=O)N2CCN(C(=O)C34CC5CC(CC(C5)C3)C4)CC2)cc(OC)c1OC`: the cell viability is 97.5%.
With `COc1cc(C(C)=O)ccc1OC(=O)C(C)N1C(=O)c2ccccc2C1=O` (centres undefined), the cell viability amounted to 97.2%.
In the case of `CCOC(=O)C1=C(C)NC2=C(C(=O)CC(c3ccc(Cl)cc3)C2)C1c1ccc(O)c(OCC)c1` (centres undefined), the cell viability was 104%.
As to `COc1ccc(OC)c(NC(=O)CSc2nc3c(=O)[nH]cnc3n2-c2ccc(C)cc2)c1`, the cell viability is 105%.
The figure for `CCOC(=O)CSc1nc2c(c(=O)[nH]c(=O)n2C)n1Cc1cccc(C)c1` is 100%; for `CCCc1cc(=O)[nH]c(SCc2ccc(C(=O)Nc3c(C)cccc3C)cc2)n1` it is 105%.
With `COc1ccc(Br)cc1C1C(C(=O)OCC2CCCO2)=C(C)NC2=C1C(=O)CCC2` (centres undefined), the cell viability stood at 90.8%.
As for `COc1ccc(C(=O)/C=C/c2ccc(OC)c(Cn3nc(C)c(Br)c3C)c2)cc1`, the cell viability worked out at 102%.
Turning to `COc1cc(C(C)=O)ccc1OCc1ccc(Cl)cc1Cl`, the cell viability came to 105%.
As to `COc1ccc(C2c3[nH]c4ccccc4c3CCN2C(=O)/C=C/c2cc(OC)c(OC)c(OC)c2)cc1` (centres undefined), the cell viability worked out at 32.6%.
Take `COc1cc(C(=O)Nc2ccc(C(=O)c3nccn3C)cc2)cc(OC)c1OC`: the cell viability came out at 91.8%.
The figure for `COc1cc(-c2c(C#N)c(N)nc(SCC(=O)Nc3ccc(S(N)(=O)=O)cc3)c2C#N)cc(OC)c1OC` is 102%; for `COc1cc(OC)cc(C(=O)n2nc(C)c(-c3ccccc3)c2N)c1` it is 100%.
As to `COc1ccc(C=O)c(C(=O)O)c1OC`, the cell viability came out at 99.2%.
In the case of `CCCCc1[nH]nc2c1C(c1ccc(O)c(OC)c1)C(C#N)=C(N)O2` (centres undefined) it was 104%; in that of `COc1ccc2oc(=O)cc(CN3CCN(Cc4ccc(F)cc4)CC3)c2c1`, 103%; in that of `CCCOc1ccc(C(CC(=O)O)NC(=O)c2ccc3c(c2)OCO3)cc1` (centres undefined), 97.5%.
For `Cc1[nH]c2ccccc2c1CCN1C(=O)c2ccccc2C1(O)c1ccccc1` (centres undefined), the cell viability was 99.3%.
Turning to `COc1ccc(C(=O)NCCOc2cccc(Oc3ccccc3)c2)cc1OC`, the cell viability was determined as 88.1%.
For `NC(=O)NC(CCCN=C(N)N)C(=O)O` (centres undefined), the cell viability is 101%.
For `COc1cc(-c2ccc(/C=C/c3[nH]c(=O)[nH]c(=O)c3Cl)o2)c(OC)cc1Cl`, the cell viability is 110%.
As to `CCc1ccccc1NC(=O)CSc1nc2c(=O)[nH]cnc2n1-c1ccc(C)cc1`, the cell viability came out at 98.7%.
As to `COC(=O)c1cc(C(C)(C)C)cc(C(C)(C)C)c1O`, the cell viability was 109%.
For the compound `CCOc1cc(C2/C(=C(/O)c3ccc(OC)c(OC)c3)C(=O)C(=O)N2C)ccc1O` (centres undefined), the cell viability was 101%.
In the case of `COc1ccc2c(c1)c(CC(=O)OCc1ccccc1F)c(C)n2C(=O)c1ccc(Cl)cc1`, the cell viability came to 104%.
The figure for `Cc1ccc2oc(C(Cl)(Cl)Cl)cc(=O)c2c1` is 26.6%; for `COc1ccc(OCC(=O)NC(Cc2c[nH]c3ccccc23)C(=O)O)cc1` (centres undefined) it is 93.4%; for `COc1cc(OC)c(C(=O)N2CCCCC2)cc1OC` it is 109%.
With `CC(C)(C)c1nnc(NC(=O)c2ccc3c(c2)OCO3)s1`, the cell viability was 98%.
The figure for `COc1cc(C(=O)CCNc2cccc(Cl)c2)cc(OC)c1OC` is 90.7%; for `COc1cc(C2C3=C(CC(C)(C)CC3=O)N(c3ccccc3)C3=C2C(=O)CC(C)(C)C3)ccc1O` it is 97.8%.
For the compound `CCCCOc1ccc(C2=NOC(=O)/C2=C\c2ccccc2)cc1`, the cell viability was 103%.
On to `CCOc1ccccc1-c1nc(CSc2nc3c(=O)[nH]cnc3n2C)c(C)o1`, for which the cell viability is 110%.
Turning to `COc1ccc(C(=O)/C=C2\C(=O)Nc3ccccc32)cc1OC`, the cell viability was found to be 52.3%.
In the case of `COc1cccc(-c2cc(=O)c3c(OC)cccc3o2)c1`, the cell viability is 64%.
Regarding `CCOC(=O)C1=C(C)NC2=C(C(=O)CC(c3ccc(Cl)cc3)C2)C1c1cc(OC)c(OC)c(OC)c1` (centres undefined), the cell viability turned out to be 100%.
Consider `CC1Nc2nc3ccccc3n2C(c2cccc(F)c2)=C1C(=O)c1ccccc1` (centres undefined), for which the cell viability is 105%.
